# The other results are listed elsewhere or left out.
# B1: PX14375D-bvu-513-34-513 (Bacteroides vulgatus) (protein)
# chain: TEDTFWKDETDFNLALTSCYTPLKNALNGGYYGTRGVMLRIARADEVDFRNDISDVYTVNRFTNSNTNSLTQGMFYQFYNALYRTNSIMQKLEEKKEQFSTDFQNSVKGECLFIRGFYLFQLAKEFKDAPLRLTASQSPSTFPLAKSSQADIWAQAKEDLKTAASLLPITNKIGKPTQGAAYAALGKIYVYEENWQEAINVLEPLTQNPYTYKLVEDFNWNFDDTHENNAESIFELLIEDVGGTDLWGDGENINSTQSNTRPKEYAAAEVGGWYEANPTQQIMDIFWKEKDKDGNFDYRARCSVAWDYEGCTYYQRPFREVFAQDKWKTYWILKYQNWKTQKDEPAPPKSFINERAIRYADVLLMLAEAYMNKGALDTSIGYINQIRRRANLNDYSGPITKEGVFEDLVHQRAIEFFVEGERFYDLRRWGLLEQTLKTCDDTRYKNYQTGKSDNINKFNYFPIPAKELDTNPLCTPSEGW
# What was measured:
# Assay in all cases: glycan array binding signal (z-score within array); higher = stronger binding
# Details in all cases: glycan notation: IUPAC condensed, linker removed
# [1] = molecular target: Kdn(a2-3)Gal(b1-4)Glc
# In short: (§1)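 The binding signal is a Z-score computed within each array and averaged over linkers. Arrays of the same protein sequence at different concentrations or buffers were also averaged together. Data originate from 3228 arrays in the Consortium for Functional Glycomics database, kept only where the protein sequence was available.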
# [2] = molecular target: Kdn(a2-3)Gal(b1-4)GlcNAc
# In short: as §1
# [3] = molecular target: Kdn(a2-3)Gal(b1-4)[Fuc(a1-3)]GlcNAc
# In short: as §1
# [4] = molecular target: Kdn(a2-6)Gal(b1-4)GlcNAc
# In short: as §1
# [5] = molecular target: Man(a1-2)Man(a1-2)Man(a1-3)Man
# In short: as §1
# [6] = molecular target: Man(a1-2)Man(a1-2)Man(a1-6)[Man(a1-3)]Man
# In short: as §1
# [7] = molecular target: Man(a1-2)Man(a1-3)Man
# In short: as §1
# [8] = molecular target: Man(a1-2)Man(a1-3)[Man(a1-2)Man(a1-6)]Man
# In short: as §1
# [9] = molecular target: Man(a1-2)Man(a1-3)[Man(a1-2)Man(a1-6)]Man(a1-6)[Man(a1-2)Man(a1-2)Man(a1-3)]Man
# In short: as §1
# [10] = molecular target: Man(a1-2)Man(a1-3)[Man(a1-2)Man(a1-6)]Man(a1-6)[Man(a1-2)Man(a1-2)Man(a1-3)]Man(b1-4)GlcNAc(b1-4)GlcNAc
# In short: as §1
# [11] = molecular target: Man(a1-2)Man(a1-3)[Man(a1-6)]Man(a1-6)[Man(a1-2)Man(a1-3)]Man(b1-4)GlcNAc(b1-4)GlcNAc
# In short: as §1
# [12] = molecular target: Man(a1-2)Man(a1-6)[Man(a1-3)]Man(a1-6)[Man(a1-2)Man(a1-2)Man(a1-3)]Man
# In short: as §1
# [13] = molecular target: Man(a1-2)Man(a1-6)[Man(a1-3)]Man(a1-6)[Man(a1-2)Man(a1-2)Man(a1-3)]Man(b1-4)GlcNAc(b1-4)GlcNAc
# In short: as §1
# [14] = molecular target: Man(a1-3)[Man(a1-6)]Man
# In short: as §1
# [15] = molecular target: Man(a1-3)[Man(a1-6)]Man(a1-6)[Man(a1-2)Man(a1-3)]Man(b1-4)GlcNAc(b1-4)GlcNAc
# In short: as §1
# [16] = molecular target: Man(a1-3)[Man(a1-6)]Man(a1-6)[Man(a1-3)]Man
# In short: as §1
# [17] = molecular target: Man(a1-3)[Man(a1-6)]Man(a1-6)[Man(a1-3)]Man(b1-4)GlcNAc(b1-4)GlcNAc
# In short: as §1
# [18] = molecular target: Man(a1-3)[Man(a1-6)]Man(b1-4)GlcNAc(b1-4)GlcNAc
# In short: as §1
# [19] = molecular target: Man(a1-3)[Man(a1-6)]Man(b1-4)GlcNAc(b1-4)[Fuc(a1-6)]GlcNAc
# In short: as §1
# [20] = molecular target: Man(a1-6)Man
# In short: as §1
# [21] = molecular target: Man(b1-4)GlcNAc
# In short: as §1
# [22] = molecular target: MurNAc(b1-4)GlcNAc
# In short: as §1
# [23] = molecular target: Neu5Ac(a2-3)Gal
# In short: as §1
# [24] = molecular target: Neu5Ac(a2-3)Gal(b1-3)GalNAc
# In short: as §1
# [25] = molecular target: Neu5Ac(a2-3)Gal(b1-3)GalNAc(b1-3)Gal(a1-4)Gal(b1-4)Glc
# In short: as §1
# [26] = molecular target: Neu5Ac(a2-3)Gal(b1-3)GalNAc(b1-4)[Neu5Ac(a2-3)]Gal(b1-4)Glc
# In short: as §1
# [27] = molecular target: Neu5Ac(a2-3)Gal(b1-3)GalNAc(b1-4)[Neu5Ac(a2-8)Neu5Ac(a2-3)]Gal(b1-4)Glc
# In short: as §1
# [28] = molecular target: Neu5Ac(a2-3)Gal(b1-3)GalNAc6S
# In short: as §1
# [29] = molecular target: Neu5Ac(a2-3)Gal(b1-3)GlcNAc
# In short: as §1
# [30] = molecular target: Neu5Ac(a2-3)Gal(b1-3)GlcNAc(b1-2)Man
# In short: as §1
# [31] = molecular target: Neu5Ac(a2-3)Gal(b1-3)GlcNAc(b1-2)Man(a1-3)[GlcNAc(b1-4)][Neu5Ac(a2-3)Gal(b1-3)GlcNAc(b1-2)Man(a1-6)]Man(b1-4)GlcNAc(b1-4)GlcNAc
# In short: as §1
# [32] = molecular target: Neu5Ac(a2-3)Gal(b1-3)GlcNAc(b1-2)Man(a1-3)[Neu5Ac(a2-3)Gal(b1-3)GlcNAc(b1-2)Man(a1-6)]Man(b1-4)GlcNAc(b1-4)GlcNAc
# In short: as §1
# [33] = molecular target: Neu5Ac(a2-3)Gal(b1-3)GlcNAc(b1-3)Gal(b1-3)GlcNAc
# In short: as §1
# [34] = molecular target: Neu5Ac(a2-3)Gal(b1-3)GlcNAc(b1-3)Gal(b1-4)GlcNAc
# In short: as §1
# [35] = molecular target: Neu5Ac(a2-3)Gal(b1-3)GlcNAc(b1-3)GalNAc
# In short: as §1
# [36] = molecular target: Neu5Ac(a2-3)Gal(b1-3)GlcNAc(b1-4)Gal(b1-4)Glc
# In short: as §1
# [37] = molecular target: Neu5Ac(a2-3)Gal(b1-3)GlcNAc(b1-6)GalNAc
# In short: as §1
# [38] = molecular target: Neu5Ac(a2-3)Gal(b1-3)GlcNAc6S
# In short: as §1
binder,measurement,setting,value
B1,glycan array binding signal (z-score),[1],-0.365
same,glycan array binding signal (z-score),[2],-0.661
same,glycan array binding signal (z-score),[3],-0.888
same,glycan array binding signal (z-score),[4],0.143
same,glycan array binding signal (z-score),[5],-0.876
same,glycan array binding signal (z-score),[6],-1.09
same,glycan array binding signal (z-score),[7],-1
same,glycan array binding signal (z-score),[8],-0.686
same,glycan array binding signal (z-score),[9],-0.479
same,glycan array binding signal (z-score),[10],-0.156
same,glycan array binding signal (z-score),[11],-0.571
same,glycan array binding signal (z-score),[12],-0.845
same,glycan array binding signal (z-score),[13],0.184
same,glycan array binding signal (z-score),[14],0.285
same,glycan array binding signal (z-score),[15],-0.298
same,glycan array binding signal (z-score),[16],0.769
same,glycan array binding signal (z-score),[17],-0.125
same,glycan array binding signal (z-score),[18],0.478
same,glycan array binding signal (z-score),[19],-0.592
same,glycan array binding signal (z-score),[20],0.399
same,glycan array binding signal (z-score),[21],0.571
same,glycan array binding signal (z-score),[22],0.052
same,glycan array binding signal (z-score),[23],0.476
same,glycan array binding signal (z-score),[24],-0.026
same,glycan array binding signal (z-score),[25],0.596
same,glycan array binding signal (z-score),[26],0.28
same,glycan array binding signal (z-score),[27],-0.651
same,glycan array binding signal (z-score),[28],1.03
same,glycan array binding signal (z-score),[29],-0.373
same,glycan array binding signal (z-score),[30],-0.133
same,glycan array binding signal (z-score),[31],0.071
same,glycan array binding signal (z-score),[32],0.513
same,glycan array binding signal (z-score),[33],-0.066
same,glycan array binding signal (z-score),[34],0.172
same,glycan array binding signal (z-score),[35],-0.439
same,glycan array binding signal (z-score),[36],-0.949
same,glycan array binding signal (z-score),[37],-0.432
same,glycan array binding signal (z-score),[38],0.049

# Three entries drawn at random from the list so far, as already listed:
binder,measurement,setting,value
B1,glycan array binding signal (z-score),[24],-0.026
same,glycan array binding signal (z-score),[27],-0.651
same,glycan array binding signal (z-score),[28],1.03

# Reference: the supplement of paper PMC8728848
